PubChem BioAssay AID602196 | INSERM, 2012

Test: 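Genes whose knock-down alters cisplatin killing of lung cancer cells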
Cell system: human A549 lung cancer cells
Reagents: siRNA pair against human genes
Time to read-out: 48 h transfection before cisplatin; time from cisplatin to read-out not stated
Treatment: cisplatin at a dose killing half of control-siRNA cells; exact dose and duration not given
Detection: 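Cisplatin cell death as a shift from the 50% death seen with control siRNA; siRNAs toxic or growth-blocking alone scored 0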
Reading the numbers: two-siRNA summed score (-2 to +2): higher = both siRNAs protect from cisplatin killing; -2 means both sensitise
Call rule: 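Each siRNA scores 0 if harmful alone by LDH or WST-1, otherwise +1 if it reduces and -1 if it increases cisplatin killing; a gene is active when both siRNAs agree (sum +2 or -2)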
Meaning of the calls: active = both siRNAs shift cisplatin killing the same way; inactive = no consistent shift, or siRNA harmful alone
Shown is an unselected part of about 23,000 reagents. 455 of all reagents (2%) count as active. 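Active includes both protection and sensitisation; some change values fall well beyond the stated -50 to +50 range.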 Further read-outs or replicates are left out here. Not given: the amount of reagent.

Gene	two-siRNA summed score (-2 to +2)	Call
SERINC2	0	inactive
ZKSCAN4	0	inactive
ERMARD	0	inactive
TTC1	0	inactive
SLC25A27	0	inactive
GAPVD1	0	inactive
BFSP2	1	inactive
LOC148198	0	inactive
LOC147941	0	inactive
SNAP23	0	inactive
SLC9A1	0	inactive
NINL	1	inactive
UNC13A	-2	active
CHST6	0	inactive
LOC399900	0	inactive
TXN2	-1	inactive
PRR11	0	inactive
CNTN5	0	inactive
ANAPC5	0	inactive
MAFB	-1	inactive
OSER1	0	inactive
SPMIP4	2	active

Sorted by “two-siRNA summed score (-2 to +2)” (high to low): 2 of the entries above
Gene	two-siRNA summed score (-2 to +2)	Call
ZKSCAN4	0	inactive
ERMARD	0	inactive

Further reagents follow.
Gene	two-siRNA summed score (-2 to +2)	Call
ZNF658	0	inactive
LOC442430	1	inactive
NOL8	1	inactive
LOC399983	0	inactive
PCDHAC1	0	inactive
ACOT2	1	inactive
HIKESHI	0	inactive
ANP32A	0	inactive
PDPR2P	0	inactive
LINC02910	0	inactive
SRPRA	0	inactive
LOC387821	0	inactive
HRH4	0	inactive
SPG11	0	inactive
LOC150928	0	inactive
RASSF8	0	inactive
PLIN2	-1	inactive
